Results published in US20040106555.
For some assays here: Weaker means in comparison with the reference protein, sequence or condition of that experiment. For some assays here: Protein sequences can lack the tags named with them. For some assays here: At least one result comes from cells or an extract, where the contact may be indirect.

Legend:
Experiment in all cases: EMSA
[1] = test system: E47/neurogenin3 heterodimer; settings: weakest of four; protein translated in vitro; protein details: TNT reticulocyte lysate; label: 32P
E47/NeuroD1 heterodimer = settings: weakest of four; protein translated in vitro; protein details: TNT reticulocyte lysate; label: 32P
HES1 = target: T1, HES1 (UniProt Q04666); settings: binds with lower affinity than ngn3 sites; purified recombinant protein; protein details: GST fusion (pGEX2T, E. coli BL21); label: 32P
T1 sequence (looked up, limits assumed): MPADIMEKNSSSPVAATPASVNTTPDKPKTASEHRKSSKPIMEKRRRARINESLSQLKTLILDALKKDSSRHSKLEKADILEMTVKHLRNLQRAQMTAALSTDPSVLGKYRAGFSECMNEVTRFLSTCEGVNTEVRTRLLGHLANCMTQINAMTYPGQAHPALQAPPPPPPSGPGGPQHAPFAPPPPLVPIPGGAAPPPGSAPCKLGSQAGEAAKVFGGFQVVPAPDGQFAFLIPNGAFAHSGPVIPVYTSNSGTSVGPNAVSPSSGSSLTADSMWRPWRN

HNF3beta (endogenous) = target: T2, HNF3beta (endogenous) (UniProt P35583); settings: single major complex recognized by HNF3beta antiserum; protein in an extract; protein details: betaTC3 and alphaTC1.6 nuclear extract; label: 32P
T2 sequence (looked up, limits assumed): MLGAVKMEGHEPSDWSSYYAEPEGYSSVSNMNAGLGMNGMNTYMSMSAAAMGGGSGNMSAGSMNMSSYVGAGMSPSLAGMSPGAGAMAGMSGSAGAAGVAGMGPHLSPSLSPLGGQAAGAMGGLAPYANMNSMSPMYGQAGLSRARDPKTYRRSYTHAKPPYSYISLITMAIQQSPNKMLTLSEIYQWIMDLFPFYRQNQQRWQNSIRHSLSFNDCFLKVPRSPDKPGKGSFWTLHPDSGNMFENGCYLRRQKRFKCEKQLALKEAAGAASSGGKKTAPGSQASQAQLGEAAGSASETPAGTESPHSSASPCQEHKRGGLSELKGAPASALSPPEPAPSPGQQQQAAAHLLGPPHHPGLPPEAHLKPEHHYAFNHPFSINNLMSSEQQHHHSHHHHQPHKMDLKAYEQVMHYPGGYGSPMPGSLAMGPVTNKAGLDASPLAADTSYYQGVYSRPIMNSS

## CTTTGTCCGGAATCCAGCTGTGCCCTGCGGGGGAG (double strand) [NEUROG3 E box]
[1]
  binding result: binds more weakly
E47/NeuroD1 heterodimer
  binding result: binds more weakly

## GATCTCGCCACGAGCCACAAGGATTG (double strand) [H1P]
HES1
  binding result: binds more weakly

## GATCTCTCGAGAGAGCAAACAGCGCGGCGG (double strand) [H3-1 (ngn3 promoter proximal)]
HNF3beta (endogenous)
  binding result: binds

## TTATTATTATTTTAGCAAACACTGGAGACAG (double strand) [H3-2 (ngn3 promoter distal)]
HNF3beta (endogenous)
  binding result: binds
